These results are taken from paper PMC11176075.

For at least one entry, the source does not settle the construct or the ends of the probe. For some of these results: The comparison behind a weaker result is the experiment's own reference, which may not be listed here. At least one verdict was read from the data and is not stated in words by the source.

Assay in all cases: fluorescence anisotropy
Background: Polarisation of emitted light reports the rotation of a fluorescent probe.

In series [1] the test system is PRC2 core complex, EZH2 mt1 (Homo sapiens). The settings on record: FA: 50 mM Tris-HCl pH 7.5, 200 mM KCl (G4 24, Supp. Fig. 1d) or 100 mM KCl (RNA panel), 2.5 mM MgCl2, 0.1 mM ZnCl2, 2 mM 2-ME, 0.1 mg/ml BSA, 0.05% NP-40, recombinant protein, protein details: N-terminal His6-MBP, PreScission-cleavable.
For series [2], the system named is PRC2 core complex, EZH2 mt2 (Homo sapiens). The settings on record: FA: 50 mM Tris-HCl pH 7.5, 200 mM KCl (G4 24, Supp. Fig. 1d) or 100 mM KCl (RNA panel), 2.5 mM MgCl2, 0.1 mM ZnCl2, 2 mM 2-ME, 0.1 mg/ml BSA, 0.05% NP-40, recombinant protein, protein details: N-terminal His6-MBP, PreScission-cleavable.
Series [3] deals with PRC2 core complex, EZH2 wild type (Homo sapiens). The settings on record: 200 mM KCl; FA: 50 mM Tris-HCl pH 7.5, 200 mM KCl (G4 24, Supp. Fig. 1d) or 100 mM KCl (RNA panel), 2.5 mM MgCl2, 0.1 mM ZnCl2, 2 mM 2-ME, 0.1 mg/ml BSA, 0.05% NP-40; recombinant protein; protein details: N-terminal His6-MBP, PreScission-cleavable; label: 3' fluorescein (6-FAM).

Turning to UGCCCAUCUACACCUCACGAGGGCA [MEG3 RNA], the binding result was “binds more weakly” in series [1] (100 mM KCl, label: 3' 6-FAM) and “binds more weakly” in series [2] (100 mM KCl, label: 3' 6-FAM).

For UUAGGGUUAGGGUUAGGGUUAGGG [G4 24 RNA], the binding result in series [1] (200 mM KCl, stronger defect than mt2, label: 3' fluorescein (6-FAM)) is reported as “binds more weakly”; in series [3] it was “binds”; in series [2] (200 mM KCl, milder defect than mt1, label: 3' fluorescein (6-FAM)), “binds more weakly”.

As for “GGGAGCCCAGAGUUACAGACGGCGGCGAGAGGAAGGAGGGGCGU [HOTAIR RNA]”, the binding result in series [1] (100 mM KCl, label: 3' 6-FAM) is given as “binds more weakly”; in series [2] (100 mM KCl, label: 3' 6-FAM) it was “binds more weakly”.
